Test results published in EP4663661A1 (Hainan Simcere Zaiming Pharmaceutical Co., Ltd., dated 2025).
These are yes or no findings as the source states them, for the method shown. Some results given as binding are weak or reduced against the parent protein; the word gives no strength. For some assays here: Where a sequence is shown, tags or fusion partners need not be part of it.

T1: his-tagged human CDH6 extracellular region protein (hCDH6 ECD-his) (human) (UniProt P55285)
T1 sequence: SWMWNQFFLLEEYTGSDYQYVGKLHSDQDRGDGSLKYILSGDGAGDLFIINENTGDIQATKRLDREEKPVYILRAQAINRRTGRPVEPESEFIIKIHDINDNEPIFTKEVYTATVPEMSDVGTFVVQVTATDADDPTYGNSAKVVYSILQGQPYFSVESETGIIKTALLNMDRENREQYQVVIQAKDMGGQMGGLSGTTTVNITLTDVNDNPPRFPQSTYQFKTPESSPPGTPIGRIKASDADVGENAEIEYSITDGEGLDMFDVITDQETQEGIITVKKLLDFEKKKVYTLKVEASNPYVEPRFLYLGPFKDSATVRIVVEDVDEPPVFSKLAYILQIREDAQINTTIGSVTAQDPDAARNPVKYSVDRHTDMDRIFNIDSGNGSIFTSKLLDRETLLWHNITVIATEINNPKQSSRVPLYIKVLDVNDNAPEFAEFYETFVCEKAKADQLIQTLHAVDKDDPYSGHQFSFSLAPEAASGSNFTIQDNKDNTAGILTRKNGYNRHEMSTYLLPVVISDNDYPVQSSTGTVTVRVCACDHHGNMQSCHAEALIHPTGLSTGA


Biological target: T1, his-tagged human CDH6 extracellular region protein (hCDH6 ECD-his) (human)
Test: ELISA, antigen coated

| binding | Binder |
| --- | --- |
| binds | hCDH6-14-H4L3 (antibody, human IgG1, kappa, V domains shown) VH: EVQLVQSGAEVKKPGASVKVSCKASGYTFTDNYINWVRQAPGQGLEWMGWIYPGTGNSYYNEKFKGRVTITVDTSASTAYMELSSLRSEDTAVYYCASSYGDSFDYWGQGTTVTVSS VL: DIVMTQSPDSLAVSLGERATINCRASQDIRNYLNWYQQKPGQTPKLLISYTSRLHSGVPDRFSGSGSGTDFTLTISSLQAEDVAVYYCQQYSQLPWTFGGGTKVEIKR |
| binds | hCDH6-14-H6L3 (antibody, human IgG1, kappa, V domains shown) VH: EVQLVQSGAEVKKPGASVKVSCKASGYTFTDNYINWVRQAPGQRLEWMGWIYPGTGNSYYNEKFKGRVTITVDTSASTAYMELSSLRSEDTAVYLCASSYGDSFDYWGQGTTVTVSS VL: DIVMTQSPDSLAVSLGERATINCRASQDIRNYLNWYQQKPGQTPKLLISYTSRLHSGVPDRFSGSGSGTDFTLTISSLQAEDVAVYYCQQYSQLPWTFGGGTKVEIKR |

Biological target: monkey CDH6 protein (cynoCDH6 ECD-his) (monkey (cyno))
Test: ELISA, antigen coated

| binding | Binder |
| --- | --- |
| binds | CHI-CDH6-14 (antibody, human IgG1, kappa, V domains shown, also called CHI- hCDH6-14) VH: QIQLQQSGPELVKPGTSVKISCKASGYTFTDNYINWVRQRPGQGLEWIGWIYPGTGNSYYNEKFKGKATLTVDTSSSTAYMQFSSLTSEDSAVYLCASSYGDSFDYWGQGTTLTVSS VL: DIQMTQTTSSLSASLGNRVTISCRASQDIRNYLNWYQQKPDGTFKLLISYTSRLHSGVPSRFSGSGSGTDYSLTVSNLEPEDIATYYCQQYSQLPWTFGGGSRLEIKR |
| binds | CHI-CDH6-7 (antibody, human IgG1, kappa, V domains shown) VH: EVKLVESGGGLVKPGGSLKVSCAASGFTFSDHGMAWVRQAPGKGPEWVAFISNLAYSIYYADTVTGRFTISRENAKNTLYLEMSSLRSEDTAMYYCARVYVKWYFDVWGAGTTVTVSS VL: DIQMTQSPASLSASVGETVTITCRASENIDSYLAWYQQKQGKSPQLLVFAATLLADGVPSRFSGSGSGTQYSLKINSLQSEDVARYYCQHYYSTPLTFGAGTKLELKR |
| binds | CHI-CDH6-4 (antibody, human IgG1, kappa, V domains shown) VH: QVQLQQSGPELVKPGASVKISCKASGYAFSNFWMNWVKQRPGKGLEWIGWIYPGDGDTNYNGKFKDKATLTADKSSSTAYIQLSSLTSEDSAVYFCARLYDAWGFFDYWGQGTTLTVSS VL: QIVLTQSPAIMSASPGQKVTITCSASSSVNYMHWYQQKLGSSPKLWIYDKSKLAPGVPARFSGSGSGTSYSLTISSMEAEDAASYFCHQWSSYPPMTFGGGTKLEIKR |
| binds | CHI-CDH6-5 (antibody, human IgG1, kappa, V domains shown) VH: QVQLQQSGAELVRPGTSVKMSCKAAEYTFTNYWIGWVKQRPGHGLEWIGDLYPGGDHANYNEKFEGKATLTADTSSSTAYMQLSSLTSEDSAIYYCARGMLTTGFDSWGQGTTLTVSS VL: DIVMSQSPSSLAVSAGEKVTMSCKSSQSLFNSRTRKNYLAWYQQKPGQSPKLLIYWASTRESGVPDRFTGSGSGTDFTLTISSVQAEDLAVYYCKQSYYLRTFGGGTKLEIKR |
| binds | CHI-CDH6-12 (antibody, human IgG1, kappa, V domains shown) VH: EVNLVESGGGLVQPGDSLTLSCSASGFTFTDYYMSWVRQFPGKALEWLALIRNKANSYTTEYSASVKGRFTISRDNSQSILYLQMNALRAEDSATYYCARDSYYSHDGFAYWGQGTLVTVSA VL: DIVLTQSPASLAVSLGQRATISCRASKSVSTSSYTYMHWYQQKPGQPPKLLIKFASYLESGVPARFSGSGSGTDFTLNIHPVEEEDAATYYCQHSREFPFTFGTGTKLEIKR |
| binds | CHI-CDH6-3 (antibody, human IgG1, kappa, V domains shown) VH: QVQLQQPGAELVKPGASVKLSCKASGYTFTSYWIHWVKQRPGQGLEWIGEINPSNGVTNCNENFKSKATLTVDKSSSTAYMQLSSLTSEDSAVYYCTIPNLLWWYFDVWGAGTTVTVSS VL: DIQMTQSPASLSVSVGETVTITCRASENIYSNLAWYQQKQGKSPQLLVYEATNLADGVPSRFSGSGSGTQYSLKINSLQSEDFGSYYCQHFWGTLWTFGGGTKLEIKR |
